# Measurements: US20120014885A1
# Amino acid sequences for entries named in this document (tags omitted). A change or cut given only in a name is not applied to a line headed by its entry. Chains listed by the source or under a name are the forms on record and can include a tag or linker.
# VegF (PeproTech), labeled with biotin (P15692, form named): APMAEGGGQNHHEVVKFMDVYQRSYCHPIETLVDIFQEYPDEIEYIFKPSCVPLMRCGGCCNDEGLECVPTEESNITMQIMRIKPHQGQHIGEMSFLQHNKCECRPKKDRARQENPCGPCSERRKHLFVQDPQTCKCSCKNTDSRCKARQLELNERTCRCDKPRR
# Results are given in words; binding and its absence hold for the method and conditions named. Some binding calls cover weakened binding; strength is not graded here.
# B1: BBI-VEGF1 (designed binder)
# chain: DDESSKPCCDQCACYNLYGWTCRCSDMRLNSCHSACKSCICALSYPAQCFCVDLTDFCEPCKPSEDDKEN
# B2: 2BBIck81 (designed binder)
# chain: DDESSKPCCDQCACTKSNPPQCRCSDMRLNSCHSACKSCACYNLYGWTCFCVDITDFCYEPCKPSEDDKEN
# B3: 1BBIck81 (designed binder)
# chain: DDESSKPCCDQCACYNLYGWTCRCSDMRLNSCHSACKSCICALSYPAQCFCVDITDFCYEPCKPSEDDKEN
# Target: human VEGF165 (human) (UniProt P15692)
# Experiment: SPR (BIAcore 3000), VEGF165 coupled to CM5; trypsin and chymotrypsin in the other lanes
row,Binder,binding
1,B1,binds

# Target: human VEGF165 (human) (UniProt P15692)
# Experiment: phage display panning of the PhD C7C library on hVEGF165, 3 rounds, clones sequenced
row,Binder,binding
1,YNLYGWT [SEQ ID NO 1],binds
2,TLWPTFW [SEQ ID NO 2],binds
3,NLWPHFW [SEQ ID NO 3],binds
4,SLWPAFW [SEQ ID NO 4],binds
5,APWNSHI [SEQ ID NO 5],binds
6,APWNLHI [SEQ ID NO 6],binds
7,TLWPSYW [SEQ ID NO 7],binds
8,YNLYGWT [SEQ ID NO 8],binds
9,APWNSHI [SEQ ID NO 9],binds
10,APWNLHI [SEQ ID NO 10],binds
11,TLWPSYW [SEQ ID NO 11],binds
12,SLWPAFW [SEQ ID NO 12],binds

# Target: human VEGF165 (human) (UniProt P15692)
# Experiment: BIAcore 3000, VEGF165 coupled to a CM5 chip, TNF-alpha reference lane (Resp. Diff.), peptide injected in twofold dilutions [A]
row,Binder,binding
1,ACYNLYGWTC (biotinylated (site not stated)) [biotinylated peptide CK37281],binds

# Target: human VEGF165 (human) (UniProt P15692)
# Experiment: BIAcore 3000, hVEGF165 coupled to a CM5 chip (295 RU printed on the sheet), refolded BBI-VEGF injected
row,Binder,binding
1,B1,binds

# Target: human VEGF165 (human) (UniProt P15692)
# Experiment: phage ELISA on hVEGF165, anti-M13-HRP, ABTS, A405 after 30 minutes (n=3)
row,Binder,binding
1,YNLYGWT [SEQ ID NO 1],binds
2,TLWPTFW [SEQ ID NO 2],binds
3,NLWPHFW [SEQ ID NO 3],binds
4,SLWPAFW [SEQ ID NO 4],binds
5,APWNSHI [SEQ ID NO 5],binds
6,APWNLHI [SEQ ID NO 6],binds
7,TLWPSYW [SEQ ID NO 7],binds

# Target: VegF (PeproTech), labeled with biotin (UniProt P15692)
# Experiment: ECL competition assay (BioVeris), competitor: labeled Anti-VegF antibody; 2BBIck81 series 12.5 to 500 ng/ml
row,Binder,binding
1,B2,binds

# Target: VegF (PeproTech), labeled with biotin (UniProt P15692)
# Experiment: ECL competition assay (BioVeris): biotinylated VegF on streptavidin beads, competitor ECL labeled Anti-VegF antibody
row,Binder,binding
1,B2,binds
2,ACYNLYGWTC [synthesized CK37281 peptide],binds

# Target: human VEGF165 (human) (UniProt P15692)
# Experiment: phage ELISA, equivalent amounts of phage on hVEGF165, anti-M13-HRP, ABTS, A405 after 30 min (n=3)
row,Binder,binding
1,YNLYGWT [SEQ ID NO 1],binds
2,TLWPTFW [SEQ ID NO 2],binds
3,NLWPHFW [SEQ ID NO 3],binds
4,SLWPAFW [SEQ ID NO 4],binds
5,APWNSHI [SEQ ID NO 5],binds
6,APWNLHI [SEQ ID NO 6],binds
7,TLWPSYW [SEQ ID NO 7],binds

# Target: VegF (PeproTech), labeled with biotin (UniProt P15692)
# Experiment: ECL competition assay (BioVeris), competitor: labeled Anti-VegF antibody
row,Binder,binding
1,B2,binds
2,ACYNLYGWTC [synthesized CK37281 peptide],binds
3,B3,binds
